This continues a long series; more values of the same kind are listed elsewhere.
Test system: individuals who have previously had an MI
Test: CARE trial: effect of pravastatin vs placebo on coronary events (endpt1, rmi) by SNP genotype subgroup
Type: in vivo, human
Conditions: endpt1
Procedure: In Tables 21-22, the column labeled “Endpoint” indicates whether the endpoint that was analyzed was the primary endpoint of the CARE study (a composite endpoint of fatal coronary event or nonfatal MI, and identified as “endpt1”) or a composite endpoint of confirmed fatal or nonfatal MI (identified as “rmi”). […] As used herein, the term “benefit” (with respect to a preventive or therapeutic drug treatment) is defined as achieving a reduced risk for a disease that the drug is intended to treat or prevent (e.g., CVD such as CHD, particularly MI, or hypertension) by administering the drug treatment, compared with the risk for the disease in the absence of receiving the drug treatment (or receiving a placebo in lieu of the drug treatment) for the same genotype. […] J. […] (1996) New England Journal of Medicine 335: 1001-1009. […] A well-documented MI was one of the enrollment criteria for entry into the CARE study. Patients were enrolled in the CARE trial from 80 participating study centers. […] For the study of CARE described in this Example and shown in Tables 21-22, two endpoints were investigated: the primary endpoint of CARE (a composite endpoint of fatal coronary event or nonfatal MI, and identified as “endpt1” in the Endpoint column of Tables 21-22) and a composite endpoint of confirmed fatal or nonfatal MI (identified as “rmi” in the Endpoint column of Tables 21-22). […] HR stands for Hazard Ratio, which is a concept similar to Odds Ratio (OR). The HR in event-free survival analysis is the effect of an explanatory variable on the hazard or risk of an event. […] In Table 21, p-interaction values were calculated. An interaction (or effect modification) is formed when a third variable modifies the relation between an exposure and outcome. […] Genotype and drug interaction is present when the effect of statins (incidence rate of disease in statin-treated group, as compared to placebo) differs in patients with different genotypes.

[1] = hCV2276802 rs381418 GBA, Strata CA + CC
[2] = hCV2310409 45474794-rs6 APOA4, Strata AT + AA
[3] = hCV2310409 45474794-rs6 APOA4, Strata TT
[4] = hCV2485037 rs4904448 SPATA7, Strata AA
[5] = hCV2485037 rs4904448 SPATA7, Strata AG + GG
[6] = hCV2503034 rs1132356 BAIAP3, Strata AA
[7] = hCV2503034 rs1132356 BAIAP3, Strata AC
[8] = hCV2503034 rs1132356 BAIAP3, Strata CC
[9] = hCV2531086 rs10406069 CD22, Strata AA
[10] = hCV2531086 rs10406069 CD22, Strata AG + GG
[11] = hCV2536595 rs704 VTN, Strata AG + AA
[12] = hCV2536595 rs704 VTN, Strata GG
[13] = hCV2554615 rs2522057 LOC441108, strata CG + CC
[14] = hCV2554615 rs2522057 LOC441108, strata GG
[15] = hCV2554721 rs7315519 RPH3A, strata AG + AA
[16] = hCV2554721 rs7315519 RPH3A, strata GG
[17] = hCV2557331 rs233716 RPH3A, strata CC
[18] = hCV2557331 rs233716 RPH3A, strata CT + TT
[19] = hCV2632070 rs714052 BAZ1B, strata AA
[20] = hCV2632070 rs714052 BAZ1B, strata AG + GG
[21] = hCV2632498 rs3812316 MLXIPL, strata CC
[22] = hCV2632498 rs3812316 MLXIPL, strata CG + GG
[23] = hCV2632544 rs17145738, strata CC
[24] = hCV2632544 rs17145738, strata CT + TT
[25] = hCV2762168 rs3939286, strata CC
[26] = hCV2762168 rs3939286, strata TC + TT
[27] = hCV2781953 rs6021931, strata GT + GG
[28] = hCV2781953 rs6021931, strata TT
[29] = hCV3168675 rs469930, strata GA + GG
[30] = hCV3170445 rs272893 SLC22A4, strata CC
[31] = hCV3170445 rs272893 SLC22A4, strata TC + TT
[32] = hCV3170459 rs1050152 SLC22A4, strata CT + CC
[33] = hCV3170459 rs1050152 SLC22A4, strata TT
[34] = hCV3242919 rs486394, strata AC + AA
[35] = hCV3242952 rs2000571, strata AG + AA
[36] = hCV3242952 rs2000571, strata GG
[37] = hCV7501549 rs1467412 ATP9A, strata CT + CC
[38] = hCV7501549 rs1467412 ATP9A, strata TT
[39] = hCV7537517 rs1501908, strata CG + CC
[40] = hCV7537517 rs1501908, strata GG
[41] = hCV7910239 rs1541296 FVT1, strata AG + AA
[42] = hCV7910239 rs1541296 FVT1, strata GG
[43] = hCV8369472 rs1447351 MTNR1B, strata AA
[44] = hCV8369472 rs1447351 MTNR1B, strata GA
[45] = hCV8369472 rs1447351 MTNR1B, strata GG
[46] = hCV8420416 rs719909 PANK1, strata CT + CC
[47] = hCV8420416 rs719909 PANK1, strata TT
[48] = hCV8785824 rs1412426, strata AA
[49] = hCV8785824 rs1412426, strata AC + CC
[50] = hCV8785827 rs992969 IL33, strata AG + AA

CC[C@H](C)C(=O)O[C@H]1C[C@H](O)C=C2C=C[C@H](C)[C@H](CC[C@@H](O)C[C@@H](O)CC(=O)O)[C@H]21 [pravastatin]
NONEVENT (Pravastatin arm) (hCV2276802 rs381418 GBA, Strata AA): 354
EVENTS (Pravastatin arm) [1]: 100
NONEVENT (Pravastatin arm) [1]: 935
EVENTS (Pravastatin arm) [2]: 56
NONEVENT (Pravastatin arm) [2]: 459
EVENTS (Pravastatin arm) [3]: 76
NONEVENT (Pravastatin arm) [3]: 825
EVENTS (Pravastatin arm) [4]: 31
NONEVENT (Pravastatin arm) [4]: 228
EVENTS (Pravastatin arm) [5]: 101
NONEVENT (Pravastatin arm) [5]: 1032
EVENTS (Pravastatin arm) [6]: 0
NONEVENT (Pravastatin arm) [6]: 16
EVENTS (Pravastatin arm) [7]: 34
NONEVENT (Pravastatin arm) [7]: 258
EVENTS (Pravastatin arm) [8]: 97
NONEVENT (Pravastatin arm) [8]: 1010
EVENTS (Pravastatin arm) [9]: 7
NONEVENT (Pravastatin arm) [9]: 52
EVENTS (Pravastatin arm) [10]: 124
NONEVENT (Pravastatin arm) [10]: 1236
EVENTS (Pravastatin arm) [11]: 89
NONEVENT (Pravastatin arm) [11]: 940
EVENTS (Pravastatin arm) [12]: 44
NONEVENT (Pravastatin arm) [12]: 351
EVENTS (Pravastatin arm) [13]: 107
NONEVENT (Pravastatin arm) [13]: 1046
EVENTS (Pravastatin arm) [14]: 29
NONEVENT (Pravastatin arm) [14]: 216
EVENTS (Pravastatin arm) [15]: 84
NONEVENT (Pravastatin arm) [15]: 911
EVENTS (Pravastatin arm) [16]: 52
NONEVENT (Pravastatin arm) [16]: 355
EVENTS (Pravastatin arm) [17]: 18
NONEVENT (Pravastatin arm) [17]: 235
EVENTS (Pravastatin arm) [18]: 118
NONEVENT (Pravastatin arm) [18]: 1029
EVENTS (Pravastatin arm) [19]: 96
NONEVENT (Pravastatin arm) [19]: 974
EVENTS (Pravastatin arm) [20]: 40
NONEVENT (Pravastatin arm) [20]: 289
EVENTS (Pravastatin arm) [21]: 96
NONEVENT (Pravastatin arm) [21]: 969
EVENTS (Pravastatin arm) [22]: 40
NONEVENT (Pravastatin arm) [22]: 297
EVENTS (Pravastatin arm) [23]: 95
NONEVENT (Pravastatin arm) [23]: 983
EVENTS (Pravastatin arm) [24]: 41
NONEVENT (Pravastatin arm) [24]: 283
EVENTS (Pravastatin arm) [25]: 74
NONEVENT (Pravastatin arm) [25]: 673
EVENTS (Pravastatin arm) [26]: 62
NONEVENT (Pravastatin arm) [26]: 592
EVENTS (Pravastatin arm) [27]: 127
NONEVENT (Pravastatin arm) [27]: 1214
EVENTS (Pravastatin arm) [28]: 9
NONEVENT (Pravastatin arm) [28]: 49
EVENTS (Pravastatin arm) (hCV3168675 rs469930, strata AA): 59
NONEVENT (Pravastatin arm) (hCV3168675 rs469930, strata AA): 499
EVENTS (Pravastatin arm) [29]: 77
NONEVENT (Pravastatin arm) [29]: 766
EVENTS (Pravastatin arm) [30]: 55
NONEVENT (Pravastatin arm) [30]: 487
EVENTS (Pravastatin arm) [31]: 81
NONEVENT (Pravastatin arm) [31]: 779
EVENTS (Pravastatin arm) [32]: 105
NONEVENT (Pravastatin arm) [32]: 1038
EVENTS (Pravastatin arm) [33]: 31
NONEVENT (Pravastatin arm) [33]: 223
EVENTS (Pravastatin arm) [34]: 120
NONEVENT (Pravastatin arm) [34]: 1158
EVENTS (Pravastatin arm) (hCV3242919 rs486394, strata CC): 16
NONEVENT (Pravastatin arm) (hCV3242919 rs486394, strata CC): 104
EVENTS (Pravastatin arm) [35]: 42
NONEVENT (Pravastatin arm) [35]: 464
EVENTS (Pravastatin arm) [36]: 94
NONEVENT (Pravastatin arm) [36]: 799
EVENTS (Pravastatin arm) [37]: 93
NONEVENT (Pravastatin arm) [37]: 947
EVENTS (Pravastatin arm) [38]: 43
NONEVENT (Pravastatin arm) [38]: 319
EVENTS (Pravastatin arm) [39]: 117
NONEVENT (Pravastatin arm) [39]: 1087
EVENTS (Pravastatin arm) [40]: 19
NONEVENT (Pravastatin arm) [40]: 175
EVENTS (Pravastatin arm) [41]: 118
NONEVENT (Pravastatin arm) [41]: 1111
EVENTS (Pravastatin arm) [42]: 18
NONEVENT (Pravastatin arm) [42]: 147
EVENTS (Pravastatin arm) [43]: 29
NONEVENT (Pravastatin arm) [43]: 330
EVENTS (Pravastatin arm) [44]: 65
NONEVENT (Pravastatin arm) [44]: 586
EVENTS (Pravastatin arm) [45]: 42
NONEVENT (Pravastatin arm) [45]: 347
EVENTS (Pravastatin arm) [46]: 131
NONEVENT (Pravastatin arm) [46]: 1236
EVENTS (Pravastatin arm) [47]: 5
NONEVENT (Pravastatin arm) [47]: 26
EVENTS (Pravastatin arm) [48]: 8
NONEVENT (Pravastatin arm) [48]: 127
EVENTS (Pravastatin arm) [49]: 128
NONEVENT (Pravastatin arm) [49]: 1137
EVENTS (Pravastatin arm) [50]: 61
NONEVENT (Pravastatin arm) [50]: 591
